The list shows a part of the results. Shown are side measurements of this screen, not its main read-out; they come without a call. Most of these compounds were active or inconclusive in the main read-out, so they are no random draw. Words in brackets tell the shape of the fitted curve; partial curves, single points and poor fits give uncertain potencies.
Assay: qHTS Assay to Find Inhibitors of Chronic Active B-Cell Receptor Signaling
Settings: ABC-DLBCL IkBa-CBG/CBR reporter, luminescence ratio (green luciferase fused to IkBa over red control in TMD8 lymphoma cells), 4 h
Outline: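 Cell line TMD8 (human ABC DLBCL), stably expressing tet-inducible CBG68-IkBa fusion and CBR; IMDM/0.5% FBS; cpd up to 46 uM; dox induction, 4 h, 37C/5% CO2; dual luminescence; green/red ratio; MG132 control.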

[1] = measured here: CBR red luminescence, cell number
[2] = measured here: IkBa-CBG green luminescence

Structure (SMILES)	AC50 [1]	AC50 [2]
O=C(/C=C/c1ccccc1)NC1CC2CCC1C2 (stereo not given)	20.6 µM [falling, partial curve]	
COc1ccc(C/C(N)=N/n2cnnc2)cc1Cl	0.82 µM [falling, full curve, poor fit]	
COc1ccc(-n2cc(C(=O)c3cc(Cl)ccc3O)cc(C#N)c2=O)cc1	6.31 µM [falling, full curve, poor fit]	
C=CCNC(=S)NNC(=O)c1ccc(Br)cc1	3.66 µM [falling, single point]	
CCOc1ccc(C(=O)NCC(=O)OCC(=O)N2CCC(C)CC2)cc1	1.84 µM [falling, partial curve, poor fit]	
Cc1ccc(C)c(N2C(=N)S/C(=C\c3ccc(-c4ccccc4C(=O)O)o3)C2=O)c1	15.8 µM [falling, partial curve, poor fit]	
Cc1ccc(CNc2ncccc2-c2nc3cc(Cl)ccc3o2)cc1	6.51 µM [rising, single point]	
COc1cc(NC(=O)CSc2nc3[nH]ncc3c(=O)n2-c2ccc(Cl)cc2)cc(OC)c1	15.8 µM [falling, single point]	
O=C(CSc1nncn1-c1ccccn1)Nc1ccccc1Cl	11.2 µM [falling, partial curve, poor fit]	
CCSc1nnc(-c2cccc(S(=O)(=O)N(C)C)c2)n1-c1cc(OC)ccc1OC	12.6 µM [falling, partial curve, poor fit]	
O=C(NCCC(=O)N1CCc2ccccc21)c1ccco1	25.1 µM [rising, single point]	
O=c1oc(-c2ccco2)nc2ccccc12	11.2 µM [falling, partial curve]	
COc1cc(NC(=O)CCN2CCN(C/C=C/c3ccccc3)CC2)cc(OC)c1	11.2 µM [falling, single point]	
CCN(CC(=O)Nc1ccc(OC)cc1)C(=O)Cc1coc2cc(C)c(C)cc12	16.4 µM [falling, single point]	
Cc1ccc(/C=C/C(=O)NCc2ccncc2)cc1	14.6 µM [falling, single point]	
Cc1cc(-c2n[nH]c(=S)n2-c2ccccc2C)cs1	18.4 µM [falling, partial curve]	18.4 µM [falling, partial curve, poor fit]
O=c1c2cc(-c3ccccc3)sc2nc2n1N=C(c1cccs1)CS2	0.282 µM [falling, full curve, poor fit]	
CCOc1ccc(/C=N/NC(=O)c2ccoc2C)cc1OC	11.2 µM [falling, partial curve, poor fit]	
Cc1ccc(NC(=O)COC(=O)Cn2c(C)csc2=O)cc1C	3.26 µM [rising, full curve, poor fit]	
N#CCC(N)=C(C#N)C#N	20.6 µM [falling, partial curve, poor fit]	

Structure (SMILES)	AC50 [1]	AC50 [2]
CCCN(CC1CC1)C(=O)COC(=O)c1[nH]c(C)c(C(=O)OCC)c1C	10.3 µM [falling, partial curve, poor fit]	
CC(C)c1c(O)nc(SCc2ccc(F)cc2)[nH]c1=O	25.1 µM [rising, single point]	
N#Cc1c(N)nc2c(c1-c1ccncc1)CCCC2	8.91 µM [falling, partial curve]	
Oc1c(Cl)cc(Cl)cc1/C=C/c1ccc2cccc(O)c2n1	11.2 µM [rising, partial curve]	22.4 µM [falling, single point]
Cc1nc(NC(=O)c2oc3ccccc3c2C)sc1C(=O)N(C)C	4.11 µM [falling, full curve, poor fit]	
CCN(C(=O)CN1CCCCC1)c1c(N)n(Cc2ccccc2)c(=O)[nH]c1=O	20.6 µM [falling, partial curve, poor fit]	
COc1ccc(C(=O)C(Cc2cc(C(C)=O)ccc2OC)N2CCCC2)cc1 (stereo not given)	1.12 µM [rising, partial curve, poor fit]	
CCOc1cc(-c2nnc(SCC(=O)NCc3ccccc3)nc2-c2ccc(OC)c(OCC)c2)ccc1OC	4.47 µM [rising, full curve, poor fit]	5.01 µM [falling, full curve]
O=C(O)COc1ccc(Br)cc1/C=N/O	0.355 µM [falling, partial curve, poor fit]	
COc1ccc(OCC(=O)Nc2ccc3c(c2)OCO3)cc1	8.91 µM [falling, partial curve, poor fit]	
Cc1ccc(O)c(CNc2cnc3ccccc3c2)c1	0.562 µM [rising, full curve]	
Cc1cccc2[nH]c(-c3ccc(NC(=O)c4ccco4)cc3)nc12	11.2 µM [falling, partial curve, poor fit]	
C=CCOc1c(CNc2cccc(C(=O)O)c2)cccc1OC	1.03 µM [rising, partial curve]	1.16 µM [rising, full curve, poor fit]
COc1ccc(CNC(=S)Nc2ccc(S(N)(=O)=O)cc2)cc1	2.51 µM [falling, partial curve, poor fit]	
O=C1c2ccccc2C(Nc2ccc3c(c2)OCCO3)N1Cc1ccccc1 (stereo not given)	0.731 µM [rising, partial curve, poor fit]	
CN(C)C=Nc1ncc2c([nH]c3ccccc32)c1C#N	10 µM [falling, partial curve]	
COc1cc2c(C#N)c(N3CCN(c4ccccc4OC)CC3)nc(N)c2c(N)n1	10.3 µM [falling, partial curve]	
CSC1=NCCN1C(=O)c1ccc(S(=O)(=O)N(C)C)cc1	1.84 µM [rising, full curve, poor fit]	
CCC(CC)NC(=O)COC(=O)c1ccc(OCC(=O)Nc2ccccc2OC)c(OC)c1	18.4 µM [falling, partial curve, poor fit]	
CCN(C(=O)COC(=O)c1c(C)nn(-c2ccccc2)c1C)C1CCS(=O)(=O)C1 (stereo not given)	0.631 µM [falling, full curve, poor fit]	8.91 µM [rising, partial curve, poor fit]

Structures shown so far containing a thiophene ring, fused or not, in the order listed:
Structure (SMILES)	AC50 [1]	AC50 [2]
Cc1cc(-c2n[nH]c(=S)n2-c2ccccc2C)cs1	18.4 µM [falling, partial curve]	18.4 µM [falling, partial curve, poor fit]
O=c1c2cc(-c3ccccc3)sc2nc2n1N=C(c1cccs1)CS2	0.282 µM [falling, full curve, poor fit]	
